Source: the supplement of paper PMC10331698
± gives the standard deviation of the averaged measurements. Most entries show no effect beyond the scatter of the controls.

Legend:
Assay in all cases: level (log10 ratio to DMSO vehicle control); higher = higher biomarker level / cell amount than vehicle control
[1] = compound: C=C(C)C(=O)OCC(F)(F)C(F)(F)C(F)(F)F [2,2,3,3,4,4,4-Heptafluorobutyl methacrylate]; settings: 2200 nM; in DMSO
Method: (§1)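 BioMAP Diversity Plus panel of 12 human primary cell co-culture systems (3C, 4H, LPS, SAg, BT, BF4T, BE3C, CASM3C, HDF3CGF, KF3CT, MyoF, Mphg). Compounds were added 1 h before stimulation and left for 24 h (MyoF 48 h; BT 72 h for soluble read-outs or 6 d for IgG). Biomarkers were read by ELISA, cytotoxicity by SRB, PBMC viability and proliferation by Alamar Blue. Each well value was divided by the mean of 8 DMSO control wells on the same plate and log10 transformed; duplicate blinded samples were tested at 4 concentrations.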

[2] = compound: C=CC(=O)OCC(F)(F)C(F)(F)C(F)(F)C(F)(F)COC(=O)C=C [1H,1H,6H,6H-Perfluorohexane-1,6-diol diacrylate]; settings: 2200 nM; in DMSO
Method: as §1

[3] = compound: FC(F)(F)C(F)(F)C(F)(F)C(F)(F)C(F)(F)C(F)(F)C(F)(F)CCI [1-Iodo-1H,1H,2H,2H-perfluorononane]; settings: in DMSO
Method: as §1

[4] = compound: FC(F)(F)C(F)(F)C(F)(F)C(F)(F)C(F)(F)C(F)(F)C(F)(F)I [1-Iodopentadecafluoroheptane]; settings: in DMSO
Method: as §1

[5] = compound: FC(F)C(F)(F)COCC1CO1 [((2,2,3,3-Tetrafluoropropoxy)methyl)oxirane]; settings: 2200 nM; in DMSO
Method: as §1

Perfluorooctanamide = compound: NC(=O)C(F)(F)C(F)(F)C(F)(F)C(F)(F)C(F)(F)C(F)(F)C(F)(F)F [Perfluorooctanamide]; settings: 2200 nM; in DMSO
Method: as §1

Perfluoroundecanoic acid = compound: O=C(O)C(F)(F)C(F)(F)C(F)(F)C(F)(F)C(F)(F)C(F)(F)C(F)(F)C(F)(F)C(F)(F)C(F)(F)F [Perfluoroundecanoic acid]; settings: in DMSO
Method: as §1

[6] = compound: O=C(O)C(F)(F)C(F)(F)C(F)(F)C(F)(F)C(F)(F)C(F)(F)C(F)(F)C(F)F [9-H-Perfluorononanoic acid]; settings: 2200 nM; in DMSO
Method: as §1

Perfluorobutanoic acid = compound: O=C(O)C(F)(F)C(F)(F)C(F)(F)F [Perfluorobutanoic acid]; settings: 2200 nM; in DMSO
Method: as §1

Perfluoropropanoic acid = compound: O=C(O)C(F)(F)C(F)(F)F [Perfluoropropanoic acid]; settings: 2200 nM; in DMSO
Method: as §1

[7] = compound: O=C(O)C(F)(F)C(F)(F)OC(F)(F)F [Perfluoro-3-methoxypropanoic acid]; settings: 2200 nM; in DMSO
Method: as §1

[8] = compound: O=C(O)C(F)(F)OC(F)(F)C(F)(F)OC(F)(F)C(=O)O [Perfluoro-3,6-dioxaoctane-1,8-dioic acid]; settings: 2200 nM; in DMSO
Method: as §1

[9] = compound: O=C(O)C(F)(F)OC(F)(F)C(F)(F)OC(F)(F)C(F)(F)C(F)(F)C(F)(F)F [Perfluoro-3,6-dioxadecanoic acid]; settings: 2200 nM; in DMSO
Method: as §1

[10] = compound: O=C(O)C=CC(F)(C(F)(F)F)C(F)(F)F [3-(Perfluoroisopropyl)-2-propenoic acid]; settings: in DMSO
Method: as §1

[11] = compound: O=P(O)(O)CCC(F)(F)C(F)(F)C(F)(F)C(F)(F)C(F)(F)C(F)(F)C(F)(F)C(F)(F)F [((Perfluorooctyl)ethyl)phosphonic acid]; settings: 2200 nM; in DMSO
Method: as §1

[12] = compound: O=S(=O)(Cl)C(F)(F)C(F)(F)C(F)(F)C(F)(F)C(F)(F)C(F)(F)C(F)(F)C(F)(F)F [Perfluoro-1-octanesulfonyl chloride]; settings: 2200 nM; in DMSO
Method: as §1

[13] = compound: OCC(F)(F)C(F)(F)C(F)(F)C(F)(F)C(F)(F)C(F)(F)C(F)(F)C(F)(F)C(F)(F)C(F)(F)C(F)(F)F [11:1 Fluorotelomer alcohol]; settings: in DMSO
Method: as §1

[14] = compound: OCCC(F)(F)C(F)(F)C(F)(F)C(F)(F)C(F)(F)C(F)(F)C(F)(F)C(F)(F)F [8:2 Fluorotelomer alcohol]; settings: 2200 nM; in DMSO
Method: as §1

| Test System | level (log10) [1] | level (log10) [2] | level (log10) ([3]; 740 nM) | level (log10) ([3]; 2200 nM) | level (log10) ([3]; 6700 nM) | level (log10) ([3]; 20000 nM) | level (log10) ([4]; 740 nM) | level (log10) ([4]; 2200 nM) | level (log10) ([4]; 6700 nM) | level (log10) ([4]; 20000 nM) | level (log10) [5] | level (log10) (Perfluorooctanamide) | level (log10) (Perfluoroundecanoic acid; 740 nM) | level (log10) (Perfluoroundecanoic acid; 2200 nM) | level (log10) [6] | level (log10) (Perfluorobutanoic acid) | level (log10) (Perfluoropropanoic acid) | level (log10) [7] | level (log10) [8] | level (log10) [9] | level (log10) ([10]; 2200 nM) | level (log10) ([10]; 6700 nM) | level (log10) ([10]; 20000 nM) | level (log10) ([10]; 60000 nM) | level (log10) [11] | level (log10) [12] | level (log10) ([13]; 370 nM) | level (log10) ([13]; 1100 nM) | level (log10) ([13]; 3300 nM) | level (log10) ([13]; 10000 nM) | level (log10) [14] |
| --- | --- | --- | --- | --- | --- | --- | --- | --- | --- | --- | --- | --- | --- | --- | --- | --- | --- | --- | --- | --- | --- | --- | --- | --- | --- | --- | --- | --- | --- | --- | --- |
| BT:sIL-17F | -0.014 ± 0.13 | -0.322 ± 0.23 | 0.017 ± 0.03 | 0.058 ± 0.052 | 0.062 ± 0.023 | 0.0585 ± 0.011 | -0.123 ± 0.0078 | 0.0055 ± 0.019 | -0.0435 ± 0.049 | -0.0545 ± 0.16 | -0.018 ± 0.079 | -0.009 ± 0.037 | -0.0335 ± 0.12 | -0.136 ± 0.051 | -0.008 ± 0.0071 | -0.083 ± 0.081 | -0.0555 ± 0.12 | -0.133 ± 0.016 | -0.129 ± 0.071 | 0.0035 ± 0.06 | -0.17 ± 0.13 | -0.088 ± 0.081 | -0.014 ± 0.054 | 0.0025 ± 0.043 | -0.0725 ± 0.042 | -0.032 ± 0.0057 | 0.268 ± 0.0071 | 0.308 ± 0.0078 | 0.319 ± 0.096 | 0.33 ± 0.077 | 0.012 ± 0.0099 |
| SAg:CD62E/E-Selectin | 0.032 ± 0.0071 | -0.028 ± 0.023 | -0.007 ± 0.0099 | -0.0075 ± 0.018 | 0 ± 0.014 | -0.0225 ± 0.053 | -0.0255 ± 0.023 | -0.0245 ± 0.046 | -0.0415 ± 0.056 | -0.008 ± 0.044 | 0.0185 ± 0.018 | -0.0145 ± 0.013 | -0.0235 ± 0.015 | 0.0065 ± 0.039 | -0.009 ± 0.013 | 0.0005 ± 0.022 | 0.0035 ± 0.0064 | -0.0005 ± 0.0035 | 0.015 ± 0.016 | 0.0185 ± 0.029 | 0.0035 ± 0.025 | 0 ± 0.011 | 0.0045 ± 0.013 | -0.006 ± 0.0042 | 0.008 ± 0.035 | -0.004 ± 0.0057 | 0.054 ± 0.041 | 0.045 ± 0.0057 | 0.0325 ± 0.018 | 0.0355 ± 0.035 | 0.0085 ± 0.023 |
| HDF3CGF:CD106/VCAM-1 | -0.029 ± 0.054 | -0.329 ± 0.029 | -0.0365 ± 0.0092 | -0.044 ± 0.011 | -0.0925 ± 0.013 | -0.115 ± 0.018 | -0.0065 ± 0.023 | -0.0125 ± 0.026 | -0.0165 ± 0.021 | -0.046 ± 0.041 | -0.0435 ± 0.019 | -0.011 ± 0.02 | -0.017 ± 0.017 | -0.018 ± 0.0099 | -0.028 ± 0.0071 | 0.0005 ± 0.019 | -0.0175 ± 0.028 | -0.015 ± 0.011 | -0.0365 ± 0.0078 | -0.073 ± 0.061 | -0.0695 ± 0.037 | -0.0265 ± 0.015 | -0.019 ± 0.02 | -0.025 ± 0.035 | 0.102 ± 0.014 | -0.014 ± 0.0014 | -0.0455 ± 0.069 | -0.075 ± 0.011 | -0.144 ± 0.013 | -0.069 ± 0.075 | -0.045 ± 0.048 |
